{"source": "paper PMC5155146", "about": "“Thioredoxin-interacting protein regulates haematopoietic stem cell ageing and rejuvenation by inhibiting p38 kinase activity” (Nature Communications, 2016)", "key": {"[1]": {"biological_target": "T1, thioredoxin-interacting protein (TXNIP), endogenous mouse (mouse (endogenous in BM cells and HSCs)) (UniProt Q8BG60)", "T1 sequence": "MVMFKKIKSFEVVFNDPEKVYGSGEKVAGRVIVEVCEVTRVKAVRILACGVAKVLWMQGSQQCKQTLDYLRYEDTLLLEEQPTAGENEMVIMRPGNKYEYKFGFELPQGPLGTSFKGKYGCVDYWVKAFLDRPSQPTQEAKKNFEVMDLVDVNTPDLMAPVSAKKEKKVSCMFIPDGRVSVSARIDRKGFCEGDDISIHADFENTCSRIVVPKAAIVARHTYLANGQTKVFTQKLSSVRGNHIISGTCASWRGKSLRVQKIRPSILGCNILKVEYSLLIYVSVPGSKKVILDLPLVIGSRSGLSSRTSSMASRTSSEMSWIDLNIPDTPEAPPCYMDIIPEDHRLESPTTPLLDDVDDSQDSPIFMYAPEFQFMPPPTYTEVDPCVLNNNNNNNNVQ", "assay": "proximity ligation; in situ PLA in old LT-HSCs treated with 10 μM TAT or TAT-TN13 for 1 h"}, "[2]": {"biological_target": "T1, thioredoxin-interacting protein (TXNIP), endogenous mouse (mouse (endogenous in BM cells and HSCs))", "assay": "co-IP; immunoprecipitation in old mouse BM cells treated with 10 μM TAT or TAT-TN13 for 1 h"}}, "note": "No constants are given. Whether binding was seen depends on the method and setting. Binding seen in cells or lysates may run through a third protein. Binding can be weak; no strength is given.", "data": [{"substance": "p38 mitogen-activated protein kinase (p38), endogenous mouse (enzyme)", "values": [{"measurement": "binding", "setting": "[1]", "result": "binds"}, {"measurement": "binding", "setting": "[2]", "result": "binds"}]}]}
